Reference: the M2OR odorant receptor database
Some of the results follow. The calls were merged from several studies; some rest on single wells.

What was measured:
Conditions in all cases: stereoisomer not certain
[1] = test system: T1, O52I2
T1 sequence (whole entry): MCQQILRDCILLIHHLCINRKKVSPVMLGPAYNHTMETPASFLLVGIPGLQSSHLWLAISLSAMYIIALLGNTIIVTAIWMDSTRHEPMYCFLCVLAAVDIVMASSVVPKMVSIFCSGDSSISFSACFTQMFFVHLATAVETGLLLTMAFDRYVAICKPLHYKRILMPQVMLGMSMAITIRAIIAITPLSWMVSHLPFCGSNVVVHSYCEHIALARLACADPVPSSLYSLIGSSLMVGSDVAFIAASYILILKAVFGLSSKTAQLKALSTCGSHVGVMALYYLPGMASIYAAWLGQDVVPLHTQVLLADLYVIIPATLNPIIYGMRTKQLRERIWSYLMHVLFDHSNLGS
Outline: (§1)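 Values were gathered from published papers (main text and supplementary material), with extra details requested from the original authors when needed, and checked for typos and inconsistencies. Each receptor–molecule pair is called responsive (active) if the original authors judged the measured signal statistically different from baseline, and non-responsive (inactive) otherwise. Assay methods varied by source, often transient mammalian cell-line luciferase assays. Recorded details include cell line, G-protein, co-transfected protein and tags.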

[2] = test system: T2, O52I2; remark: listed apart in the source
T2 sequence (whole entry): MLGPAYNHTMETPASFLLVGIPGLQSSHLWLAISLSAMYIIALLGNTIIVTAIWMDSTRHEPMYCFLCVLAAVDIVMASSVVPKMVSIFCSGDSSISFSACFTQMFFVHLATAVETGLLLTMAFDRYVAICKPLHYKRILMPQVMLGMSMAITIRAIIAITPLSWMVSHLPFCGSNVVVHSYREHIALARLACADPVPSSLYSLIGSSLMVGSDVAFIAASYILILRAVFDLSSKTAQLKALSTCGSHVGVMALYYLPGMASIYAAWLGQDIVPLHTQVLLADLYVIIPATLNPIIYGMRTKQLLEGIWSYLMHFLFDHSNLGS
Outline: as §1

[3] = test system: T3, O52J3
T3 sequence (whole entry): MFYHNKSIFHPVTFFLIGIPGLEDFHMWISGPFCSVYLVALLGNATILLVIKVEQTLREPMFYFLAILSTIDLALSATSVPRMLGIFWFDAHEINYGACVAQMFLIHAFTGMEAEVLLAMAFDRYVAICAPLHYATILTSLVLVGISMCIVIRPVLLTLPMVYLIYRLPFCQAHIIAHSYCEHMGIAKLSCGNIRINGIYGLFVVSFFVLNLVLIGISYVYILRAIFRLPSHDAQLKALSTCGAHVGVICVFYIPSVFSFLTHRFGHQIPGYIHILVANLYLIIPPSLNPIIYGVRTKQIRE
Outline: as §1

[4] = test system: T4, O52L1
T4 sequence (whole entry): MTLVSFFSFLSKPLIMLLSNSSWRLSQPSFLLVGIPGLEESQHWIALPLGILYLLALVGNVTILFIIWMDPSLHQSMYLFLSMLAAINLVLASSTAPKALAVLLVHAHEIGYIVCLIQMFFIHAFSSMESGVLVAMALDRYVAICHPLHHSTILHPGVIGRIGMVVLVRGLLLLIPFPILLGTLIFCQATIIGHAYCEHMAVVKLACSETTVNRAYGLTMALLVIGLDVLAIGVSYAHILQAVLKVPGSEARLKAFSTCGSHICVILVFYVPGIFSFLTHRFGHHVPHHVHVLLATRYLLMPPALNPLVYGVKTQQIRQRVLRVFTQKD
Outline: as §1

[5] = test system: T5, O52L2
T5 sequence (whole entry): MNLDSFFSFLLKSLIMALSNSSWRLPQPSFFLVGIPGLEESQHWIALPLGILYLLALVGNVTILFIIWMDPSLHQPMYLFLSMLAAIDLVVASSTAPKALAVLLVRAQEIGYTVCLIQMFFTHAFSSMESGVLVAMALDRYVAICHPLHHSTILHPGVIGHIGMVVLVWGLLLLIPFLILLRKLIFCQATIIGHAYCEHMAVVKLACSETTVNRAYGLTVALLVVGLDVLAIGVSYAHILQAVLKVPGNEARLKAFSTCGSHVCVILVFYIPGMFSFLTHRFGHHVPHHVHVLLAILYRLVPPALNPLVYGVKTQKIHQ
Outline: as §1

[6] = test system: T6, O52M1
T6 sequence (whole entry): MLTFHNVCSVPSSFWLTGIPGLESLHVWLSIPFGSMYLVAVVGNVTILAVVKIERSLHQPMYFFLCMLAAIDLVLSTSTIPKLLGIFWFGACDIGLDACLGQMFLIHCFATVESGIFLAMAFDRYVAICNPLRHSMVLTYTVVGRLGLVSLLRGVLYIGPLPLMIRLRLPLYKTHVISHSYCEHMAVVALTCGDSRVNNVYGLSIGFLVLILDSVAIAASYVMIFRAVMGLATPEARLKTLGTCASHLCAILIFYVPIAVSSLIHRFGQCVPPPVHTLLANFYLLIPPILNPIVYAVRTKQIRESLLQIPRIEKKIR
Outline: as §1

[7] = test system: T7, O52N1
T7 sequence (whole entry): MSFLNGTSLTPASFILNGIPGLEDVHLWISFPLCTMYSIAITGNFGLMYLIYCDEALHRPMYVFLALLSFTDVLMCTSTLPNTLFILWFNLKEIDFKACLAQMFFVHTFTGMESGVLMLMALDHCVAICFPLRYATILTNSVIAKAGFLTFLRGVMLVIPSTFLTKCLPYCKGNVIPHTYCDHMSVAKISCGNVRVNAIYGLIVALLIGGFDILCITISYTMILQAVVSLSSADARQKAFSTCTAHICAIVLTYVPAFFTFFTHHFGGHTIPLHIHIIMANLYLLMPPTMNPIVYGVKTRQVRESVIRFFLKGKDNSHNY
Outline: as §1

[8] = test system: T8, O52N2
T8 sequence (whole entry): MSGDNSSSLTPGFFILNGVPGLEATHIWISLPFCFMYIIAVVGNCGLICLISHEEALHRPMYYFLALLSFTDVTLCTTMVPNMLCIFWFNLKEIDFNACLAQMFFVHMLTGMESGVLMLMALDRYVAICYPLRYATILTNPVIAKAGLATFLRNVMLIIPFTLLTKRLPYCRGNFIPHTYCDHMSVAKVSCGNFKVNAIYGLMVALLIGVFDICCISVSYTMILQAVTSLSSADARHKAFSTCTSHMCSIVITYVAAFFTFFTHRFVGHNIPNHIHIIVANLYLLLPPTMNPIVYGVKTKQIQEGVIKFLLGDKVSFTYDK
Outline: as §1

[9] = test system: T9, O52N4
T9 sequence (whole entry): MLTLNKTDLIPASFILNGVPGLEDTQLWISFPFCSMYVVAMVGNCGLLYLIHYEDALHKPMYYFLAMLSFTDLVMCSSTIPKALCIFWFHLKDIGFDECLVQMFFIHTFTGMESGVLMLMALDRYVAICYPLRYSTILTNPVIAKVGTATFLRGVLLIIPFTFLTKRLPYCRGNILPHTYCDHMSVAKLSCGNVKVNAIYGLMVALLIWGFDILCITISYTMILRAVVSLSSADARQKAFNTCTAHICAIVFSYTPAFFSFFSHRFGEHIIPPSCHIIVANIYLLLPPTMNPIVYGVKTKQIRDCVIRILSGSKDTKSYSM
Outline: as §1

[10] = test system: T10, O52P1
T10 sequence (whole entry): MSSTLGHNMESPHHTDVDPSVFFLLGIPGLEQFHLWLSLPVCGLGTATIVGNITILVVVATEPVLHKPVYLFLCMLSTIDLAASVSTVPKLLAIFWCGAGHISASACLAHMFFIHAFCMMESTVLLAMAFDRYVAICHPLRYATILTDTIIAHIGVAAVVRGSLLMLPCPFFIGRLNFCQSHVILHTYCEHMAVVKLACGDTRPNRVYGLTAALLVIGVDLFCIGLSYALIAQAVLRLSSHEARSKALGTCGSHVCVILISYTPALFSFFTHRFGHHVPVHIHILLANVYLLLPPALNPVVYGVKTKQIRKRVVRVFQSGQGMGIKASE
Outline: as §1

Measured: odorant receptor agonist call

CS
inactive: all assays above
